# Several values for one entry are separate records, joined by “and”; a condition that tells them apart may be missing. Identical values can stand only once. The whole screen tested about 320,000 compounds, of which about 620 (0.19%) were called active. This list was built around the results that the source calls inconclusive (neither active nor inactive); the mix of calls is not that of the screen. Rule as the data show it: active = activation above about 80%; inconclusive = between about 30% and that limit; inactive = weaker than that.
# The chains behind the UniProt entries cited, without tags or fusion partners.
# UniProt Q8NER1, whole entry, looked up: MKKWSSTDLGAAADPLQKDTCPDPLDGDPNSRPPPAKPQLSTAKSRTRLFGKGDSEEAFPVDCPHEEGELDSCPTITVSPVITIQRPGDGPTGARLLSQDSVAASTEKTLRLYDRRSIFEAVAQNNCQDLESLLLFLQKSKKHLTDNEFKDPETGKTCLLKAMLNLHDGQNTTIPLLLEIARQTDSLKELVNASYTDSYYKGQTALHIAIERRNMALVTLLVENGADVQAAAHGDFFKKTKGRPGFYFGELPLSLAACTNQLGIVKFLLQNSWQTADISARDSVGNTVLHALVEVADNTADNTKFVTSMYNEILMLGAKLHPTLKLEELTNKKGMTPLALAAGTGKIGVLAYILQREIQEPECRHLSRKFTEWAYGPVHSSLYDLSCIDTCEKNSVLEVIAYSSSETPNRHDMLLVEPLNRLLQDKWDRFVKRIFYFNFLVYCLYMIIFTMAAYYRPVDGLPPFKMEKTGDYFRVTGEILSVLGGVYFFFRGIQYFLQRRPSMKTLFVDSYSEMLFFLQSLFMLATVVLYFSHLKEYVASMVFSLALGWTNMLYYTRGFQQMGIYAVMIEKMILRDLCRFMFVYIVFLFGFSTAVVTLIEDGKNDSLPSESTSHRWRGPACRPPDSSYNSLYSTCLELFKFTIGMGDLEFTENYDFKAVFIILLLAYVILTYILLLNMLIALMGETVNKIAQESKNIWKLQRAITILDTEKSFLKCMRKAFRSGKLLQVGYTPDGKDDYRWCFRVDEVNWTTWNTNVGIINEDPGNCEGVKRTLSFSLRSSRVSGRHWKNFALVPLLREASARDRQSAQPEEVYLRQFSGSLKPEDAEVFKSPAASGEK
# Target: Transient receptor potential cation channel subfamily V member 1 (Homo sapiens) (UniProt Q8NER1)
# Assay: HTS Assay for Compounds that Act as Agonists of the Vanilloid Receptor 1; also: 0% is about no effect
# Conditions: TRPV1-expressing cells, Fluo-8 calcium influx, agonist mode; at 8.33 µM, stronger effect = higher value
# Summary of the method: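 TRPV1-expressing cells were cultured overnight at 35.5C and loaded with Fluo-8 calcium dye for 40 to 90 min at room temperature. After a 10 s baseline, compound was added and calcium influx was read kinetically for 3 min (ex 480/em 520 nm).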
row,SMILES,activation
1,Cc1ccsc1/C=C(/C#N)C(=O)NCc1ccccc1,inconclusive: 39.5%
2,Cc1ccc(C)c(-n2c(-c3csc(C)c3)n[nH]c2=S)c1,inactive: -2.33%
3,CO/N=C/CC(=O)Nc1ccc(F)cc1F,inactive: -4.27%
4,O=C(N=C1SC2CS(=O)(=O)CC2N1CCc1ccc(F)cc1)C1CCCCC1 (stereo not given),inconclusive: 33.1%
5,N=C(N)SCc1nc2ccccc2c(=O)n1-c1ccccc1,inactive: 0.511% and inactive: -4.71%
6,CCOC(=O)c1cnc2ccc(OC)cc2c1Nc1ccc2c(c1)OCCO2,inconclusive: 46.6%
7,CSc1ncc(Cl)c(C(=O)Nc2ccc(C)c(C)c2)n1,inconclusive: 31.2%
8,O=C1CC2(CCN(C(=O)c3ccc(Cl)cc3)CC2)Oc2ccccc21,inconclusive: 65%
9,CC(C)C[C@H](NC(=O)c1nc[nH]c1C(=O)NCCCCCNC(=O)OC(C)(C)C)C(=O)OCc1ccccc1,inconclusive: 39.2%
10,Cn1cc([N+](=O)[O-])c(C(=O)Nc2ccc(C3CCCCC3)cc2)n1,inconclusive: 53%
11,COc1ccc(/C=C/C(=O)Nc2ccc(OC)nc2)cc1,inconclusive: 49.6%
12,CC(=O)/C(=N\Nc1ccccc1Cl)Sc1nnc(-c2ccccc2)n1-c1ccccc1,inconclusive: 31.5%
13,CC(Sc1nc2ccccc2[nH]1)C(=O)Nc1ccc2c(c1)OCCO2 (stereo not given),inconclusive: 53.7%
14,Cc1ccc(-c2nnc(N3CCN(c4ccccn4)CC3)c3ccccc23)cc1,inconclusive: 39%
15,O=C(Nc1ccccc1Cl)N1CCN(c2ccccn2)CC1,inactive: 10.4%
16,O=C(CCN1C(=O)/C(=C\c2ccccc2)SC1=S)N1CCOCC1,inconclusive: 34.3%
17,COC(=O)C1CCN(C(=O)COC(=O)c2cc(-c3ccccc3)nc3ccc(OC)cc23)CC1,inconclusive: 56.5%
18,O=C(COC(=O)/C(=C/c1cccs1)c1cccs1)NCc1ccccc1Cl,inconclusive: 30.9%
19,CC(C)NC(=O)c1cnc(Sc2ncc(C(F)(F)F)cc2Cl)n1C,inconclusive: 30.7%
20,CN1/C(=C\C(=S)NC(=O)c2ccccc2Cl)C(C)(C)c2ccccc21,inconclusive: 41.5%
21,Cc1ccc(OC/C(=N\O)C(C)(C)C)c([N+](=O)[O-])c1,inconclusive: 42.3%
22,COc1ccccc1CNC(=S)NCc1ccc(F)cc1,inconclusive: 68.8%
23,CCN(CC)c1cccc(OC(=O)c2cccnc2Cl)c1,inconclusive: 38.5%
24,CCCCOC(=O)C1CN(c2ccccc2)N=C1C(C)=O (stereo not given),inconclusive: 41.6%
25,CCn1c(COc2ccc(C)cc2)nnc1SCc1ccc(C#N)cc1,inconclusive: 46.9%
